Experimental findings from publication PMC4074974 are described below.

Chains of the proteins cited; added tags and fusions are not shown. Lines headed by an entry give the natural chain unless they say otherwise; changes in a name come on top. A line that says so, or that is headed by a name, gives the form on record, which may keep a tag or linker.
UniProt Q9UQR0: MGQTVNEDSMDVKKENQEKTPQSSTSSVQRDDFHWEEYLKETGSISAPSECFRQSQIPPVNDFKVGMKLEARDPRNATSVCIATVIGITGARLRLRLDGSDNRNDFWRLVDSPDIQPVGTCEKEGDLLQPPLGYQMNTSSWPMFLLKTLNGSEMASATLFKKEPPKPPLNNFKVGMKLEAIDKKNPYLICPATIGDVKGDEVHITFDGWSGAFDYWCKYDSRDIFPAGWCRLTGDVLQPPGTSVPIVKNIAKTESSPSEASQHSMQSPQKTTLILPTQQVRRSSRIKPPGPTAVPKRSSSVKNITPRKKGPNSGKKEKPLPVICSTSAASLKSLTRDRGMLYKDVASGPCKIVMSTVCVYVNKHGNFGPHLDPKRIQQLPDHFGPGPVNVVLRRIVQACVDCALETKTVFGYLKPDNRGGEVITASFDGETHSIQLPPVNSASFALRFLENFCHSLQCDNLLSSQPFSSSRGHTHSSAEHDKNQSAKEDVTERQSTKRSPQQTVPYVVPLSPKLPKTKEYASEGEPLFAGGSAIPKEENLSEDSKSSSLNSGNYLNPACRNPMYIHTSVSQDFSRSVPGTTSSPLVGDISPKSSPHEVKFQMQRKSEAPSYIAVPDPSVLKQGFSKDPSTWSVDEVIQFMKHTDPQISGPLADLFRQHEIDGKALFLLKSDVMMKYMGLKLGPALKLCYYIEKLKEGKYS
SCML2 fragment with RBR (Fig. 1D left) (human), one chain, as listed by the source: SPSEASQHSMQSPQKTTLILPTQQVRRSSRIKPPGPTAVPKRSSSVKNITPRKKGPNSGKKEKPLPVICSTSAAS

Construct, isoform or probe ends are uncertain for at least one entry. For part of these data: No signal at the amounts used counts as a negative. For part of these data: A weaker result is weaker than the reference pair of the same experiment. For part of these data: At least one verdict was read from the data and is not stated in words by the source.

Series [1] addresses SCML2 fragment lacking RBR (deltaRBR) (human) (UniProt Q9UQR0). Put plainly: pull-down. To be noted: pull-down: 20 mM Tris pH 7.9, 1 mM MgCl2, 0.05% IGEPAL CA-630, RNase inhibitor, 1 h 4 C, recombinant protein, protein details: GST.
Series [2] has as its system SCML2 fragment with RBR (Fig. 1D left) (human). Put plainly: pull-down. The conditions noted are these: pull-down: 20 mM Tris pH 7.9, 1 mM MgCl2, 0.05% IGEPAL CA-630, RNase inhibitor, 1 h 4 C, recombinant protein, protein details: GST.
The mark [3] stands for this setting: letters put together from the description.

As for “GGCAAGCTGGTCATTAACGGCAAGACTCTGAAGGGCGAGACCACCACCAAGGCCGTGGACGCAGAAACCGCTGAAAAGGCATTCAAGCAGTACGCTAACGACCC (double strand) [dsDNA (sDNA + complement)]”, the binding result was “no binding” in series [1]; “binds more weakly” in series [2] (discriminated between RNA and DNA).
For “GGCAAGCTGGTCATTAACGGCAAGACTCTGAAGGGCGAGACCACCACCAAGGCCGTGGACGCAGAAACCGCTGAAAAGGCATTCAAGCAGTACGCTAACGACCC [sDNA]”, the binding result in series [1] (single-stranded DNA) was “no binding”; in series [2] (discriminated between RNA and DNA, single-stranded DNA) it was “binds more weakly”.
Regarding “GGGCAAGCUGGUCAUUAACGGCAAGACUCUGAAGGGCGAGACCACCACCAAGGCCGUGGACGCAGAAACCGCUGAAAAGGCAUUCAAGCAGUACGCUAACGACCC [sRNA (synthetic 100 nt)]”, the values for the binding result in series [1] (setting [3]) and in series [2] (setting [3]) were “no binding” and “binds”, respectively.
